doi:10.1101/2025.03.06.641798
No constants are given. Whether binding was seen depends on the method and setting. Binding seen in cells or lysates may run through a third protein. Here binding means that the protein was enriched with, or labelled near, the bait; the list need not be complete.

Chains of the proteins cited; added tags and fusions are not shown. Lines headed by an entry give the natural chain unless they say otherwise; changes in a name come on top.
UniProt Q86VE9: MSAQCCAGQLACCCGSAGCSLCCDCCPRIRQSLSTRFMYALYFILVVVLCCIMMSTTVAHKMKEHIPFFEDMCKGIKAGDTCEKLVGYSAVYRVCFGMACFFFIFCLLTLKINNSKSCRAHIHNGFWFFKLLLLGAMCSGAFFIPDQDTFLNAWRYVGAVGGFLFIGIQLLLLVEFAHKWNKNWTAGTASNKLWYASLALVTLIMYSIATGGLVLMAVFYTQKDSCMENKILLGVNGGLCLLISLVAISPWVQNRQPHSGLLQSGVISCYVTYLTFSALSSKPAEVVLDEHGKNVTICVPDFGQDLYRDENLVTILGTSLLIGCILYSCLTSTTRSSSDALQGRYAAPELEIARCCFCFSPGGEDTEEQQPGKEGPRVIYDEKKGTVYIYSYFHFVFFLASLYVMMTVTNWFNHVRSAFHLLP
UniProt Q9Y6I9: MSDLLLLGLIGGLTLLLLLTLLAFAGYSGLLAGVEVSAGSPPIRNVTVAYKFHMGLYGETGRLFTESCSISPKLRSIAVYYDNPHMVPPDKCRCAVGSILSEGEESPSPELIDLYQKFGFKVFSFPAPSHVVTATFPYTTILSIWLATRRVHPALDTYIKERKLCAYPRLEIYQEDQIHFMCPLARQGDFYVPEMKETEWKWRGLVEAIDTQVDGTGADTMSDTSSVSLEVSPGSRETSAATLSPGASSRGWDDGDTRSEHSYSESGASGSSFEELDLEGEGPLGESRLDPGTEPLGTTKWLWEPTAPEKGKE

B1: ATL3, endogenous (protein, UniProt Q6DD88 1-541)
chain: MLSPQRVAAAASRGADDAMESSKPGPVQVVLVQKDQHSFELDEKALASILLQDHIRDLDVVVVSVAGAFRKGKSFILDFMLRYLYSQKESGHSNWLGDPEEPLTGFSWRGGSDPETTGIQIWSEVFTVEKPGGKKVAVVLMDTQGAFDSQSTVKDCATIFALSTMTSSVQIYNLSQNIQEDDLQQLQLFTEYGRLAMDEIFQKPFQTLMFLVRDWSFPYEYSYGLQGGMAFLDKRLQVKEHQHEEIQNVRNHIHSCFSDVTCFLLPHPGLQVATSPDFDGKLKDIAGEFKEQLQALIPYVLNPSKLMEKEINGSKVTCRGLLEYFKAYIKIYQGEDLPHPKSMLQATAEANNLAAAASAKDIYYNNMEEVCGGEKPYLSPDILEEKHCEFKQLALDHFKKTKKMGGKDFSFRYQQELEEEIKELYENFCKHNGSKNVFSTFRTPAVLFTGIVALYIASGLTGFIGLEVVAQLFNCMVGLLLIALLTWGYIRYSGQYRELGGAIDFGAAYVLEQASSHIGNSTQATVRDAVVGRPSMDKKAQ
B2: RETREG2, endogenous (protein, UniProt Q8NC44 1-543)
chain: MASGGGGGNTGAGGGPGMGLSLGLGLGLSLGMSEATSEAEEEAATAEAVGRLATTLWLRLRGWEAVLAAAQRLLVWEKPLHSLVTAAALNGLFWLLSSSSLRPFFLLSVSLLAYFLLDLWQPRFLPDVSASSPEEPHSDSEGAGSGARPHLLSVPELCRYLAESWLTFQIHLQELLQYKRQNPAQFCVRVCSGCAVLAVLGHYVPGIMISYIVLLSILLWPLVVYHELIQRMYTRLEPLLMQLDYSMKAEANALHHKHDKRKRQGKNAPPGGDEPLAETESESEAELAGFSPVVDVKKTALALAITDSELSDEEASILESGGFSVSRATTPQLTDVSEDLDQQSLPSEPEETLSRDLGEGEEGELAPPEDLLGRPQALSRQALDSEEEEEDVAAKETLLRLSSPLHFVNTHFNGAGSPPDGVKCSPGGPVETLSPETVSGGLTALPGTLSPPLCLVGSDPAPSPSILPPVPQDSPQPLPAPEEEEALTTEDFELLDQGELEQLNAELGLEPETPPKPPDAPPLGPDIHSLVQSDQEAQAVAEP

Each molecule was assayed against Serine incorporator 5 (SERINC5) with a FLAG-tag (human) (UniProt Q86VE9) (assay: affinity purification with mass spectrometry; Ser5-FLAG, Nef-HA and glycoGag-HA expressed in HEK293T cells; RIPA lysate incubated with anti-FLAG M2 magnetic beads or anti-HA Affinity Gel for 24 hours at 4 °C, washed with PBS five times, SDS-PAGE, Nano LC-MS/MS; 5 samples).
For “RETREG3, endogenous (from UniProt Q86VR2-1 1-466)”, the binding was “binds”. For “TEX264, endogenous (from UniProt Q9Y6I9 1-313)”, the binding was “binds”. In the case of B1, the binding is reported as “binds”. In the case of B2, the binding is reported as “binds”.
